These are yes or no findings as the source states them, for the method shown. Some results given as binding are weak or reduced against the parent protein; the word gives no strength. Where a sequence is shown, tags or fusion partners need not be part of it.
Key:
GFP-FBXW7α (human) = GFP-FBXW7α (human) (UniProt Q969H0); experiment: MST; whole cell lysate of 293T cells overexpressing the GFP fusion; MBI peptide titrated in 16 two-fold steps from 2.5 mM; Monolith NT.115; only the binder purified
GFP-POLD1 (human) = GFP-POLD1 (human) (UniProt P28340); experiment: as above

By UniProt entry, the sequences of proteins in these tests, tags left out.
UniProt Q969H0: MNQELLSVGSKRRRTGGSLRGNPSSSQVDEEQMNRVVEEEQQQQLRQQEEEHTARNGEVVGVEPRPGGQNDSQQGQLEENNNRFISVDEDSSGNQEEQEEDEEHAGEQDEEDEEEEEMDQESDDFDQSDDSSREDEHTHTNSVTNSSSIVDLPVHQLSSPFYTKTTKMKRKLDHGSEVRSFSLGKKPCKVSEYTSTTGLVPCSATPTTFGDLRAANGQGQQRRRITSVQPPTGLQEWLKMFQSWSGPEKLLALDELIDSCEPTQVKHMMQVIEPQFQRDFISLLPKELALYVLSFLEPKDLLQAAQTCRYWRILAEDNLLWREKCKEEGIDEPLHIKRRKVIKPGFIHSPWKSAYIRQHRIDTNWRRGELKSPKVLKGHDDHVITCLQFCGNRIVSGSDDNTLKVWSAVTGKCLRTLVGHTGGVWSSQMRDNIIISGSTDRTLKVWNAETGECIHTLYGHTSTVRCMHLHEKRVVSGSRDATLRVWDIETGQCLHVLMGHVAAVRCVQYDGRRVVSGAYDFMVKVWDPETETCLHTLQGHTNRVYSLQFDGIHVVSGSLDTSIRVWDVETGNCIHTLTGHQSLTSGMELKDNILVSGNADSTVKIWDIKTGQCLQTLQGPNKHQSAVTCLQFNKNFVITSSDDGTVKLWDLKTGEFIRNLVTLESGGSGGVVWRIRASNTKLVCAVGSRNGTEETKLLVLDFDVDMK
UniProt P28340: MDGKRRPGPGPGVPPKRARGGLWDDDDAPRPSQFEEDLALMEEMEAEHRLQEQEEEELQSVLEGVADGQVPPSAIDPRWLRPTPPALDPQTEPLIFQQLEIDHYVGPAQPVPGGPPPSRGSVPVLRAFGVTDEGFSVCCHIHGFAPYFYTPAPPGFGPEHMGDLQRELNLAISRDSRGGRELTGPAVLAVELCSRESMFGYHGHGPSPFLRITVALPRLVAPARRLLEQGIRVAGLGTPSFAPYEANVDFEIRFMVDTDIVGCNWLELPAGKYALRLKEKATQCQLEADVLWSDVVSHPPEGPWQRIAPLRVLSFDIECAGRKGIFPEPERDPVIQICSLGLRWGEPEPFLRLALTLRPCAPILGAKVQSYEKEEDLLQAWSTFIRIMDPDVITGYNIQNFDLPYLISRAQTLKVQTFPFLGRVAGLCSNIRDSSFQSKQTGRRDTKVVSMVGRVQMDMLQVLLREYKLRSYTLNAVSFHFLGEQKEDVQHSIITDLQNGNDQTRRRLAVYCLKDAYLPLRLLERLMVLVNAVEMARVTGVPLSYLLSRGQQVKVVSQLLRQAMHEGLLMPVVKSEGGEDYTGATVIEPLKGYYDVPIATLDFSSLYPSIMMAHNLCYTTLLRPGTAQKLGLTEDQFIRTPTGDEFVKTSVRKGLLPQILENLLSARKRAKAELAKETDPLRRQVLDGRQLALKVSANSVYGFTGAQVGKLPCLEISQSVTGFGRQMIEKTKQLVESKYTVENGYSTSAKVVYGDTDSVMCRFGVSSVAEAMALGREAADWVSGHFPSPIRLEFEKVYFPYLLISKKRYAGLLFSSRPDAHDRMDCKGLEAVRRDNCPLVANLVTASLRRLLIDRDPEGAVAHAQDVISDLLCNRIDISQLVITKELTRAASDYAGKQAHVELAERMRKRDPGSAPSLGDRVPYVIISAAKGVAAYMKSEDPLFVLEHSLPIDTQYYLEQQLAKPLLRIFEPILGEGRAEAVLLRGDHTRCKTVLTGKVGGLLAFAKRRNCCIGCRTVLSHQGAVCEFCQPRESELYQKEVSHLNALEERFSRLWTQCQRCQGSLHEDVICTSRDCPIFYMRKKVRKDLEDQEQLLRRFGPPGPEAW

| binding (GFP-FBXW7α (human)) | binding (GFP-POLD1 (human)) | Binder |
| --- | --- | --- |
| binds | binds | APSEDIWKKFELLPTPPLSP [MYC-MB1 (WT) peptide] |
|  | binds | APSEDIWKKFELLPDPPLSP [MB1-T58D peptide] |
|  | binds | APSEDIWKKFELLPAPPLSP [MB1-T58A peptide] |

— publication PMC10140023
